# Measurements from the supplement of paper PMC8728848.
# This is one part of the list.
# B1: Mermaid1 (Stilbonema majum) (protein)
# chain: MGSSHHHHHHSSGLVPRGSHMAASGWLRSPQGTVVKLYRRSLSWSKADEFCKDVDGRLVVDRTADMHLFLIKNVLKEKKSRVWVGLRRTAPHSRTWIWSDGTRQNEDDLDANLWLRDEPNDAAGEEECALFMYSPWEKAWGLNDYLCRGGCRSYQFICEKWIR
# What was measured:
# Assay in all cases: glycan array binding signal (z-score within array); higher = stronger binding
# Conditions in all cases: glycan notation: IUPAC condensed, linker removed
# [1] = molecular target: Fuc(a1-3)[Gal3S(b1-4)]GlcNAc6S
# Procedure, shortened: (§1)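 The binding signal is a Z-score computed within each array and averaged over linkers. Arrays of the same protein sequence at different concentrations or buffers were also averaged together. Data originate from 3228 arrays in the Consortium for Functional Glycomics database, kept only where the protein sequence was available.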
# [2] = molecular target: Fuc(a1-3)[GalNAc(b1-4)]GlcNAc
# Procedure, shortened: as §1
# [3] = molecular target: Fuc(a1-3)[GalNAc(b1-4)]GlcNAc6S
# Procedure, shortened: as §1
# Fuc(a1-4)GlcNAc = molecular target: Fuc(a1-4)GlcNAc
# Procedure, shortened: as §1
# Fuc(b1-3)GlcNAc = molecular target: Fuc(b1-3)GlcNAc
# Procedure, shortened: as §1
# Gal(a1-2)Gal = molecular target: Gal(a1-2)Gal
# Procedure, shortened: as §1
# Gal(a1-3)Gal = molecular target: Gal(a1-3)Gal
# Procedure, shortened: as §1
# Gal(a1-3)Gal(b1-3)GlcNAc = molecular target: Gal(a1-3)Gal(b1-3)GlcNAc
# Procedure, shortened: as §1
# [4] = molecular target: Gal(a1-3)Gal(b1-3)GlcNAc(b1-2)Man
# Procedure, shortened: as §1
# [5] = molecular target: Gal(a1-3)Gal(b1-3)GlcNAc(b1-2)Man(a1-3)[Gal(a1-3)Gal(b1-3)GlcNAc(b1-2)Man(a1-6)]Man(b1-4)GlcNAc(b1-4)GlcNAc
# Procedure, shortened: as §1
# [6] = molecular target: Gal(a1-3)Gal(b1-3)GlcNAc(b1-3)GalNAc
# Procedure, shortened: as §1
# [7] = molecular target: Gal(a1-3)Gal(b1-3)GlcNAc(b1-6)GalNAc
# Procedure, shortened: as §1
# [8] = molecular target: Gal(a1-3)Gal(b1-3)[Fuc(a1-4)]GlcNAc(b1-2)Man(a1-3)[Gal(a1-3)Gal(b1-3)[Fuc(a1-4)]GlcNAc(b1-2)Man(a1-6)]Man(b1-4)GlcNAc(b1-4)GlcNAc
# Procedure, shortened: as §1
# Gal(a1-3)Gal(b1-4)Glc = molecular target: Gal(a1-3)Gal(b1-4)Glc
# Procedure, shortened: as §1
# Gal(a1-3)Gal(b1-4)GlcNAc = molecular target: Gal(a1-3)Gal(b1-4)GlcNAc
# Procedure, shortened: as §1
# [9] = molecular target: Gal(a1-3)Gal(b1-4)GlcNAc(b1-2)Man
# Procedure, shortened: as §1
# [10] = molecular target: Gal(a1-3)Gal(b1-4)GlcNAc(b1-2)Man(a1-3)[Gal(a1-3)Gal(b1-4)GlcNAc(b1-2)Man(a1-6)]Man(b1-4)GlcNAc(b1-4)GlcNAc
# Procedure, shortened: as §1
# [11] = molecular target: Gal(a1-3)Gal(b1-4)GlcNAc(b1-3)GalNAc
# Procedure, shortened: as §1
# [12] = molecular target: Gal(a1-3)Gal(b1-4)GlcNAc(b1-6)GalNAc
# Procedure, shortened: as §1
# [13] = molecular target: Gal(a1-3)Gal(b1-4)[Fuc(a1-3)]GlcNAc
# Procedure, shortened: as §1
# [14] = molecular target: Gal(a1-3)Gal(b1-4)[Fuc(a1-3)]GlcNAc(b1-2)Man(a1-3)[Gal(a1-3)Gal(b1-4)[Fuc(a1-3)]GlcNAc(b1-2)Man(a1-6)]Man(b1-4)GlcNAc(b1-4)GlcNAc
# Procedure, shortened: as §1
# Gal(a1-3)GalNAc = molecular target: Gal(a1-3)GalNAc
# Procedure, shortened: as §1
# [15] = molecular target: Gal(a1-3)[Gal(a1-4)]Gal(b1-4)GlcNAc
# Procedure, shortened: as §1
# [16] = molecular target: Gal(a1-4)Gal(b1-3)GlcNAc(b1-2)Man(a1-3)[Gal(a1-4)Gal(b1-3)GlcNAc(b1-2)Man(a1-6)]Man(b1-4)GlcNAc(b1-4)GlcNAc
# Procedure, shortened: as §1
# Gal(a1-4)Gal(b1-4)Glc = molecular target: Gal(a1-4)Gal(b1-4)Glc
# Procedure, shortened: as §1
# Gal(a1-4)Gal(b1-4)GlcNAc = molecular target: Gal(a1-4)Gal(b1-4)GlcNAc
# Procedure, shortened: as §1
# [17] = molecular target: Gal(a1-4)Gal(b1-4)GlcNAc(b1-2)Man(a1-3)[Gal(a1-4)Gal(b1-4)GlcNAc(b1-2)Man(a1-6)]Man(b1-4)GlcNAc(b1-4)GlcNAc
# Procedure, shortened: as §1
# [18] = molecular target: Gal(a1-4)Gal(b1-4)GlcNAc(b1-3)Gal(b1-4)Glc
# Procedure, shortened: as §1
# Gal(a1-4)GlcNAc = molecular target: Gal(a1-4)GlcNAc
# Procedure, shortened: as §1
# Gal(a1-6)Glc = molecular target: Gal(a1-6)Glc
# Procedure, shortened: as §1
# Gal(b1-2)Gal = molecular target: Gal(b1-2)Gal
# Procedure, shortened: as §1
# Gal(b1-3)Gal = molecular target: Gal(b1-3)Gal
# Procedure, shortened: as §1
# Gal(b1-3)Gal(b1-4)GlcNAc = molecular target: Gal(b1-3)Gal(b1-4)GlcNAc
# Procedure, shortened: as §1
# Gal(b1-3)GalNAc = molecular target: Gal(b1-3)GalNAc
# Procedure, shortened: as §1
# [19] = molecular target: Gal(b1-3)GalNAc(a1-3)[Fuc(a1-2)]Gal(b1-4)Glc
# Procedure, shortened: as §1
# [20] = molecular target: Gal(b1-3)GalNAc(a1-3)[Fuc(a1-2)]Gal(b1-4)GlcNAc
# Procedure, shortened: as §1
# Gal(b1-3)GalNAc(b1-3)Gal = molecular target: Gal(b1-3)GalNAc(b1-3)Gal
# Procedure, shortened: as §1
# [21] = molecular target: Gal(b1-3)GalNAc(b1-3)Gal(a1-4)Gal(b1-4)Glc
# Procedure, shortened: as §1
# [22] = molecular target: Gal(b1-3)GalNAc(b1-4)Gal(b1-4)Glc
# Procedure, shortened: as §1
# [23] = molecular target: Gal(b1-3)GalNAc(b1-4)[Neu5Ac(a2-3)]Gal(b1-4)Glc
# Procedure, shortened: as §1
# Gal(b1-3)GlcNAc = molecular target: Gal(b1-3)GlcNAc
# Procedure, shortened: as §1
# [24] = molecular target: Gal(b1-3)GlcNAc(a1-3)Gal(b1-4)GlcNAc
# Procedure, shortened: as §1
# [25] = molecular target: Gal(b1-3)GlcNAc(a1-6)Gal(b1-4)GlcNAc
# Procedure, shortened: as §1
# Gal(b1-3)GlcNAc(b1-2)Man = molecular target: Gal(b1-3)GlcNAc(b1-2)Man
# Procedure, shortened: as §1
# [26] = molecular target: Gal(b1-3)GlcNAc(b1-2)Man(a1-3)[Gal(b1-3)GlcNAc(b1-2)Man(a1-6)]Man(b1-4)GlcNAc(b1-4)GlcNAc
# Procedure, shortened: as §1
binder,measurement,setting,value
B1,glycan array binding signal (z-score),[1],-0.107
same,glycan array binding signal (z-score),[2],0.394
same,glycan array binding signal (z-score),[3],-0.336
same,glycan array binding signal (z-score),Fuc(a1-4)GlcNAc,-0.647
same,glycan array binding signal (z-score),Fuc(b1-3)GlcNAc,0.5
same,glycan array binding signal (z-score),Gal(a1-2)Gal,0.245
same,glycan array binding signal (z-score),Gal(a1-3)Gal,-0.309
same,glycan array binding signal (z-score),Gal(a1-3)Gal(b1-3)GlcNAc,0.118
same,glycan array binding signal (z-score),[4],-0.215
same,glycan array binding signal (z-score),[5],1.25
same,glycan array binding signal (z-score),[6],-0.081
same,glycan array binding signal (z-score),[7],-0.289
same,glycan array binding signal (z-score),[8],2.49
same,glycan array binding signal (z-score),Gal(a1-3)Gal(b1-4)Glc,-0.784
same,glycan array binding signal (z-score),Gal(a1-3)Gal(b1-4)GlcNAc,-0.824
same,glycan array binding signal (z-score),[9],-0.331
same,glycan array binding signal (z-score),[10],0.543
same,glycan array binding signal (z-score),[11],-0.449
same,glycan array binding signal (z-score),[12],-0.176
same,glycan array binding signal (z-score),[13],-0.276
same,glycan array binding signal (z-score),[14],1.45
same,glycan array binding signal (z-score),Gal(a1-3)GalNAc,-0.799
same,glycan array binding signal (z-score),[15],1.13
same,glycan array binding signal (z-score),[16],-0.121
same,glycan array binding signal (z-score),Gal(a1-4)Gal(b1-4)Glc,-0.565
same,glycan array binding signal (z-score),Gal(a1-4)Gal(b1-4)GlcNAc,-0.207
same,glycan array binding signal (z-score),[17],1.14
same,glycan array binding signal (z-score),[18],-0.325
same,glycan array binding signal (z-score),Gal(a1-4)GlcNAc,-0.618
same,glycan array binding signal (z-score),Gal(a1-6)Glc,0.263
same,glycan array binding signal (z-score),Gal(b1-2)Gal,0.189
same,glycan array binding signal (z-score),Gal(b1-3)Gal,1.56
same,glycan array binding signal (z-score),Gal(b1-3)Gal(b1-4)GlcNAc,0.711
same,glycan array binding signal (z-score),Gal(b1-3)GalNAc,2.5
same,glycan array binding signal (z-score),[19],0.47
same,glycan array binding signal (z-score),[20],0.877
same,glycan array binding signal (z-score),Gal(b1-3)GalNAc(b1-3)Gal,-0.806
same,glycan array binding signal (z-score),[21],-0.503
same,glycan array binding signal (z-score),[22],-0.441
same,glycan array binding signal (z-score),[23],0.137
same,glycan array binding signal (z-score),Gal(b1-3)GlcNAc,-0.62
same,glycan array binding signal (z-score),[24],-0.574
same,glycan array binding signal (z-score),[25],0.067
same,glycan array binding signal (z-score),Gal(b1-3)GlcNAc(b1-2)Man,-0.474
same,glycan array binding signal (z-score),[26],0.438

# Taken from the entries so far (eleven entries):
binder,measurement,setting,value
B1,glycan array binding signal (z-score),[16],-0.121
same,glycan array binding signal (z-score),Gal(a1-4)Gal(b1-4)Glc,-0.565
same,glycan array binding signal (z-score),Gal(a1-4)Gal(b1-4)GlcNAc,-0.207
same,glycan array binding signal (z-score),[17],1.14
same,glycan array binding signal (z-score),[18],-0.325
same,glycan array binding signal (z-score),Gal(a1-4)GlcNAc,-0.618
same,glycan array binding signal (z-score),Gal(a1-6)Glc,0.263
same,glycan array binding signal (z-score),Gal(b1-2)Gal,0.189
same,glycan array binding signal (z-score),Gal(b1-3)Gal,1.56
same,glycan array binding signal (z-score),Gal(b1-3)Gal(b1-4)GlcNAc,0.711
same,glycan array binding signal (z-score),Gal(b1-3)GalNAc,2.5
